Assay results reported in publication PMC7718874, “Coupling of H3K27me3 recognition with transcriptional repression through the BAH-PHD-CPL2 complex in Arabidopsis” (Nature Communications, 2020).
Results are given in words; binding and its absence hold for the method and conditions named. For part of these data: Binding seen in cells or lysates may run through a third protein. Some results given as binding are weak or reduced against the parent protein; the word gives no strength. Sequences can lack the tags named with a protein. One block for each binder: values may come before it.

What was measured:
[1] = target: T1, AIPP3, full-length, yeast two-hybrid fusion (Arabidopsis) (UniProt Q8RXT5); assay: two-hybrid; yeast two-hybrid, AD (pGADT7) and BD (pGBKT7) constructs, growth on SD -LW or -LWH plates, 30 °C, 3 d
T1 sequence: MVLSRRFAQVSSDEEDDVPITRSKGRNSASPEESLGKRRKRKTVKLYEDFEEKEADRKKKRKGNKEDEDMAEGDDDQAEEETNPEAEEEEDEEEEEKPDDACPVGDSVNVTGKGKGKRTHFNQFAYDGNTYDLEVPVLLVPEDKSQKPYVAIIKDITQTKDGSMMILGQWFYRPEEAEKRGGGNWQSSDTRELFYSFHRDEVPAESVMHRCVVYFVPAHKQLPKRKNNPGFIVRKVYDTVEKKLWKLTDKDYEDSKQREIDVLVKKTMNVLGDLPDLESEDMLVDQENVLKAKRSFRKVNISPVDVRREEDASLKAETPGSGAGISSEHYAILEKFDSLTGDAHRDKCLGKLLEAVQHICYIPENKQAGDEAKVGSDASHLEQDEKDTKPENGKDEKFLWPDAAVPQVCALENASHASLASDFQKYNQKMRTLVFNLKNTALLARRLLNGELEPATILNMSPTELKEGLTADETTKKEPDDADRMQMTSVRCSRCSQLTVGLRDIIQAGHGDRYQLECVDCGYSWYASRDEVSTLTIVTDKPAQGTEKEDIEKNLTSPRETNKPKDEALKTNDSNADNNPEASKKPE

[2] = target: T2, CPL2, full-length, yeast two-hybrid fusion (Arabidopsis) (UniProt Q5YDB5); assay: as above
T2 sequence: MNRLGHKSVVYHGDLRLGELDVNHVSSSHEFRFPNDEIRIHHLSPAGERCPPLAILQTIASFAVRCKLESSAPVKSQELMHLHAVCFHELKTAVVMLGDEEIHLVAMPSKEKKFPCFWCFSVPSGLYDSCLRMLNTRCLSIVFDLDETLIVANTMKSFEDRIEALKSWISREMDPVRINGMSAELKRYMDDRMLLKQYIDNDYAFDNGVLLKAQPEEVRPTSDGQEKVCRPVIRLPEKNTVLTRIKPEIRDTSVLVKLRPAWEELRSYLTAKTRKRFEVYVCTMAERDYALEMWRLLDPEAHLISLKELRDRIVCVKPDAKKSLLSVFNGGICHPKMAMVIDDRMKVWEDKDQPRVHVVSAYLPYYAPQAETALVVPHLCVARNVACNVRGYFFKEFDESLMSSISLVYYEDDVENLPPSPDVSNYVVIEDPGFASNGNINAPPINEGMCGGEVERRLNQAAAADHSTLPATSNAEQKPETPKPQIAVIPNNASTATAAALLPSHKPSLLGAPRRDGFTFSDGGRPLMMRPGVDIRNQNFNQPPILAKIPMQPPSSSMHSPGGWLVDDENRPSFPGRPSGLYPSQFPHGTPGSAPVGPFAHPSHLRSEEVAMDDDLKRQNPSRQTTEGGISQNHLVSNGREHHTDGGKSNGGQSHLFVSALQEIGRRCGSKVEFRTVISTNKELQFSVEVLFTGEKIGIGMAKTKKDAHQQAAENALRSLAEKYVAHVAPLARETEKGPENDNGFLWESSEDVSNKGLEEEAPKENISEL

[3] = target: T3, AIPP2, full-length, yeast two-hybrid fusion (Arabidopsis) (UniProt F4IYH6); assay: as above
T3 sequence: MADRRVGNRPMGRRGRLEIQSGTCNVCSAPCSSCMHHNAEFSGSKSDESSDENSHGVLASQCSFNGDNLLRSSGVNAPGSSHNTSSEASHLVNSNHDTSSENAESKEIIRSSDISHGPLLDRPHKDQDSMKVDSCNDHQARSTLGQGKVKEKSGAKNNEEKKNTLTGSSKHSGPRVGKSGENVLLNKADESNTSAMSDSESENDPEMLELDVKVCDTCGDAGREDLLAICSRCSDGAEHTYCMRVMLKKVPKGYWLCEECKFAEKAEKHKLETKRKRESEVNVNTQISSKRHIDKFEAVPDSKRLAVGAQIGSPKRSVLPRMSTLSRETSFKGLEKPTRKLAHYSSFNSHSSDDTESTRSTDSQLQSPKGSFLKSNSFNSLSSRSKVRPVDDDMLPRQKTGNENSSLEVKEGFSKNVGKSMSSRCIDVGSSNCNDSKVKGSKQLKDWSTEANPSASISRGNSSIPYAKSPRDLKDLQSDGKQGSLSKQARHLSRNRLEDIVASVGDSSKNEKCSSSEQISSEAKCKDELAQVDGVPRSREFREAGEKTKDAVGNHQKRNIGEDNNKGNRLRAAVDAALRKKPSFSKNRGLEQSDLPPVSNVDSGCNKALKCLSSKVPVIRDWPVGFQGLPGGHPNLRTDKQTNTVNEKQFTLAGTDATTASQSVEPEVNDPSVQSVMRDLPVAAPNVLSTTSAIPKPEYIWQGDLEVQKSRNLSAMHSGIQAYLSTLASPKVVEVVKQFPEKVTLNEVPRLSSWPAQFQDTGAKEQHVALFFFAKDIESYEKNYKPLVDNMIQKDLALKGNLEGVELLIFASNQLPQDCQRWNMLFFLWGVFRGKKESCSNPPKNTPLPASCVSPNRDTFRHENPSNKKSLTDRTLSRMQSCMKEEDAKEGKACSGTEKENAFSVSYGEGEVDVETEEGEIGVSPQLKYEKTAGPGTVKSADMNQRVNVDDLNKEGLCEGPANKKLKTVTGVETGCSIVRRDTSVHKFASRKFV

[4] = target: T4, CPL2 fused with split luciferase (Arabidopsis) (UniProt Q5YDB5); assay: split reporter; split luciferase, constructs co-infiltrated into Nicotiana benthamiana leaves, luciferase activity 2 days after infiltration, CCD camera
T4 sequence: T2 sequence

[5] = target: T5, AIPP3 fused with split luciferase (Arabidopsis) (UniProt Q8RXT5); assay: as above
T5 sequence: T1 sequence

[6] = target: T6, AIPP2 fused with split luciferase (Arabidopsis) (UniProt F4IYH6); assay: as above
T6 sequence: T3 sequence

binding [1]: binds
binding [2]: binds
binding [3]: no binding
B1: PAIPP2, full-length, yeast two-hybrid fusion (protein, UniProt F4KE59 1-1311)
chain: MADRRVGKRQMGQRGFSKVESGTCNVCSAPCSSCMHRNVGFTGSKLDESSDENCHGVVGSQCSVNEDDLLPSSMVNAHKSLNNTASEASNLVNSSHDALSENAESKETIRCSGISDDSGAAAMTSKPSLSGSRMKHKVSASANMLDQSSNCIEDQEDGILSADRAKQLKSGCSNNEIGNKDLADGSALNSDPIPGGSRKDEVKLESLQNPSSNHDDRVSSEKGNFKEKSRPGGNKERQEPSVEGSTRSGENRKDGKSSKSSSSNSSAVSESESDDSEMVEHDVKVCDICGDAGREDLLAICSGCSDGAEHTYCMREMLDEVPEGDWLCEECAEEAEKQKQEAKRKRETEVTFNTYSSGKRHADKIEAAPDAKRQVVEASTGSPKKSILPRVGALSRETSFKGLDRLRGKLNHQTSFSDDTESARSAGSQLQPPKGAFLKSSSFNCSSSKPKVQLMDDAIHPRQKTGKEDTALDLKVGGFRNVGKSMPSRTTDAGNSGGSDSQAKMLGSKVYHSQEGKSLKQVKDRNREANASASSIDQKLKSRGNSSVSHANNNRDLKGLQSDGKRGNLTKQVSNLSRNRLENSVVSGGDISTNEKCSASEQSSSQADCKDELPSTSCTGEGMPNHGTVALQDGLPRSRVPREVGKKSKEAFSKRQRSSLLAGAKGLPSSQKGGQTAESSDTSGVSDSDLSTTKNVKEDLNKGNRLRAAVDAALRKKPSFGKNRVLEQSDASLVANVDSSSEKTLRNQLPSKMHKNHVSHEGLQGGHPILWPTSDPYKQTIVTNEKQLIFPGADTIPSRLVEPEVSFPAVKPVMRDLPLVPSPVMLRSSAIPDHEFIWQGDLEVRKIINQSAMHSGIQAHLSTLASPRVAEVVNKFPETFSLNEVPRKSTWPTQFEKLGTKEAHIALFFFAKDTESYERNYKPLVDNMIKNDLALKGNLDNVDLLIFASNQLPSNCQRWNMLYFLWGVFQGRKETNPQKNTSLPTSNVLPRDRDPKELCQTSSPSKHLEKGSSLRESSSNGIETRNGTDARSHENPNNRESSIERSPSKKEDIALKVEEAGVNHIPPQVTGSNSGDSLVRKVQKVEEQELGGRKDLPLTVMGSGIQSHGQDNPLEKDLNSSQASHRKRPLWELSNPANENSSAINQKVELNNDGLCEGSPNKKLKTENGSSSLCRDTSGHDSGIMKKSPKVVFPLDLNDDSEMVDNLSPLGNDENNNNRRLISGTVPNLELALGAEETTEATMGLLPFLSRSSNSGEQSNNSMNKEKQKADEEEEDDAEVAASLSLSLSFPGTEERKNVNTPLFLFRDLPR

binding [4]: binds
binding [5]: binds
binding [6]: no binding
B2: PAIPP2 fused with split luciferase (protein, UniProt F4KE59 1-1311)
chain: B1 chain
